Reference: patent US20210347821A1
No constants are given. Whether binding was seen depends on the method and setting. Some results given as binding are weak or reduced against the parent protein; the word gives no strength.

Sequences of proteins named here, by UniProt entry; tags and fusion partners are left off.
UniProt Q9EP80: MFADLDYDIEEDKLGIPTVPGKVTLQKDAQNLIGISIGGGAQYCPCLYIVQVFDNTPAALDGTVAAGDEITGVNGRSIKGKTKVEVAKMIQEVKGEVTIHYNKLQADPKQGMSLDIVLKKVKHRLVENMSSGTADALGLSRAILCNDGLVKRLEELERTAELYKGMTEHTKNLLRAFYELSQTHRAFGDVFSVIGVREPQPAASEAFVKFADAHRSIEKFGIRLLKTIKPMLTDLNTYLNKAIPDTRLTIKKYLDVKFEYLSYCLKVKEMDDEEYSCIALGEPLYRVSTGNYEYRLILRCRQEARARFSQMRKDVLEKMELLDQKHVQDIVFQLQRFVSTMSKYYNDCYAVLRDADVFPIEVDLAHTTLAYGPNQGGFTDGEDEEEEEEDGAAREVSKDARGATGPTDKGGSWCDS

Each binder was assayed against Protein Interacting with C Kinase-1 (PICK1), purified recombinant (UniProt Q9EP80) (assay: fluorescence polarization competition, tracer 5FAM-DATC5).

binding, binds:
HWVKV [C5 peptide with X3 substituted to V]
HWIKV [C5 peptide with X3 substituted to I]
HWLRV [C5 peptide with X4 substituted to R]
HFLKV [C5 peptide with X2 substituted to F]
AWLKV [C5 peptide with X1 substituted to A]
IWLKV [C5 peptide with X1 substituted to I]
LWLKV [C5 peptide with X1 substituted to L]
